According to PMC12607843:
No constants are given. Whether binding was seen depends on the method and setting. Some entries that bind do so weakly or less than the wild type.

Protein sequences, listed by entry. Tags and fused reporters are not part of them.
UniProt P01106: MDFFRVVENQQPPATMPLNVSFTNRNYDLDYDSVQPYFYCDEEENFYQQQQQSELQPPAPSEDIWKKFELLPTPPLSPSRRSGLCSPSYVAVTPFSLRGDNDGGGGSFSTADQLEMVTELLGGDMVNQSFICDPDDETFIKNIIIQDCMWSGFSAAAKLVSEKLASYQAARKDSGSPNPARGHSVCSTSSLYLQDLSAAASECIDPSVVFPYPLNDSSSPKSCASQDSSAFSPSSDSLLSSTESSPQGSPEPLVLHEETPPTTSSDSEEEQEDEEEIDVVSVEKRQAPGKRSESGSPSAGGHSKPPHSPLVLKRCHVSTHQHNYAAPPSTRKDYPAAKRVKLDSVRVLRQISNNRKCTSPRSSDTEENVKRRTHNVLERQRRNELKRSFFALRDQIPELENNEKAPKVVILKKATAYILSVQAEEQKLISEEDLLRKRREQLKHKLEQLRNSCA

Molecular target: CoREST1/RCOR1 (human (endogenous in A375)) (UniProt Q9UKL0)
Test: ChIP-re-ChIP; formaldehyde-crosslinked chromatin sonicated to 300~500 bp; first ChIP eluted (1 mM EDTA, 1% SDS, 10 mM DTT, 65 °C), diluted and re-precipitated with the second antibody; read out by PCR at proximal promoters of RNA processing genes; done in both orders (CoREST-MYC and MYC-CoREST)

binding: binds
Substance: c-MYC (from UniProt P01106 1-454)
